Earlier results in patent US11432959B2, “Porous structures for extended release drug delivery devices” (ForSight Vision4, Inc., priority 2015, dated 2022).
For at least one compound, name, drawing or mass did not settle the structure.

Details: fluorescein, from Stay, M S et al. Pharm Res 2003

## O=C1OC2(c3ccc(O)cc3Oc3cc(O)ccc32)c2ccccc21 [fluorescein]
  Diffusion coefficient (D): 4.8 to 6 e-6 cm^2/s
